Laboratory results: the supplement of paper PMC12067093, “Discovery and optimisation of a covalent ligand for TRIM25 and its application to targeted protein ubiquitination” (Chemical Science, 2025)
This is one part of the list.

Chains of the proteins cited; added tags and fusions are not shown. Lines headed by an entry give the natural chain unless they say otherwise; changes in a name come on top.
UniProt Q9ULH0: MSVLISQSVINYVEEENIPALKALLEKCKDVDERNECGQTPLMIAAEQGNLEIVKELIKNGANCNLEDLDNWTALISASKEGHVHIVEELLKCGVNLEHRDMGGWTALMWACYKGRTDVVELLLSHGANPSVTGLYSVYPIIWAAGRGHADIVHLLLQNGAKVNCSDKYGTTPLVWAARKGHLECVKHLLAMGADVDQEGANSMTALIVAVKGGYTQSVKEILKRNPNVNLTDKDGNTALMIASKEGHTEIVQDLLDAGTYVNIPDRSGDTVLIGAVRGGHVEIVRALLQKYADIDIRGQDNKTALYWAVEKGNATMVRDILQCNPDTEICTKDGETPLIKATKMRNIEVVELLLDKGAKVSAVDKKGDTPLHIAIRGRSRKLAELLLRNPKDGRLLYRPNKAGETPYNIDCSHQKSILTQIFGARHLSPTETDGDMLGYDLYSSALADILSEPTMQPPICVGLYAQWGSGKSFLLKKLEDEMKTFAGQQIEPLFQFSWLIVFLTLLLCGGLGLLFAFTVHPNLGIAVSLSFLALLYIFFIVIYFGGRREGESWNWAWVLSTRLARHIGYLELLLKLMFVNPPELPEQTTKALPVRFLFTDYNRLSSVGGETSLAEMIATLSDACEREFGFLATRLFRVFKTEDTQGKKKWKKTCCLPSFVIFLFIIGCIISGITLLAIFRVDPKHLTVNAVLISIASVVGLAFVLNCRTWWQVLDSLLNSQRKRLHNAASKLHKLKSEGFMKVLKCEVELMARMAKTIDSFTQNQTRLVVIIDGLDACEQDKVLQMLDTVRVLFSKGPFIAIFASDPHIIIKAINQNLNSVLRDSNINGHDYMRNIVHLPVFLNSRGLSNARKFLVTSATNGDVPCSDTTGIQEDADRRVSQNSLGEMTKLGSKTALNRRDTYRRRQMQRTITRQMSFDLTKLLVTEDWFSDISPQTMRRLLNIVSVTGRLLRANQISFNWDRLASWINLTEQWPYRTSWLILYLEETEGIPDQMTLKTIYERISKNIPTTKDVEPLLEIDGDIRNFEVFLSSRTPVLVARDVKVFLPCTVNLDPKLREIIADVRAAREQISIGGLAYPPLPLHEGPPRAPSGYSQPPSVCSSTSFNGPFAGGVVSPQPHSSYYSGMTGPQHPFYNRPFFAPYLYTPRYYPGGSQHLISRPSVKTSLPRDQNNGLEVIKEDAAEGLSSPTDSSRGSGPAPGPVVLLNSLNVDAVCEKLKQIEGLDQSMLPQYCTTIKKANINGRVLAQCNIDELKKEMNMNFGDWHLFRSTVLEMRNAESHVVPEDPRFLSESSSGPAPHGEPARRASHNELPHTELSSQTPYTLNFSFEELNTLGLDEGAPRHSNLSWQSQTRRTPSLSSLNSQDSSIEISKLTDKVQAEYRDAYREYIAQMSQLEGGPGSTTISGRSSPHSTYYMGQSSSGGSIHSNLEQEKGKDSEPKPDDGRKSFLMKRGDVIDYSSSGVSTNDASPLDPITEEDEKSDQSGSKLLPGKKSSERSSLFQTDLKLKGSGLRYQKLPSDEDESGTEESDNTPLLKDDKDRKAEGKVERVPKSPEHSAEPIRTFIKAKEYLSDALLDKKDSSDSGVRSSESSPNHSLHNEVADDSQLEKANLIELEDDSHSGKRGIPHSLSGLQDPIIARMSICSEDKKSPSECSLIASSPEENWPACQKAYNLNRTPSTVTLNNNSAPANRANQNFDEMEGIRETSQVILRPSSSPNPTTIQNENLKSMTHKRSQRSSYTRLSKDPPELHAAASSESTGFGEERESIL
UniProt Q9H9V9: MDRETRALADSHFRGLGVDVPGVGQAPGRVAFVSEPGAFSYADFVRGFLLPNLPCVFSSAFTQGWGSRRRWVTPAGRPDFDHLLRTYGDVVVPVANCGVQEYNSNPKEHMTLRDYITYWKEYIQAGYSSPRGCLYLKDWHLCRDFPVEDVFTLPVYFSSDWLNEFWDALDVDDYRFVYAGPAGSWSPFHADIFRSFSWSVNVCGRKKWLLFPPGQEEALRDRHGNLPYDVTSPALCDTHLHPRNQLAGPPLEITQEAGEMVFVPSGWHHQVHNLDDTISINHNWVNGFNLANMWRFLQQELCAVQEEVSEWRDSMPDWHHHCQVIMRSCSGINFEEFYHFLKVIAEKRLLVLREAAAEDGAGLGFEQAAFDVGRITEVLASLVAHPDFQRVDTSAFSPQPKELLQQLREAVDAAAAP
UniProt P23458: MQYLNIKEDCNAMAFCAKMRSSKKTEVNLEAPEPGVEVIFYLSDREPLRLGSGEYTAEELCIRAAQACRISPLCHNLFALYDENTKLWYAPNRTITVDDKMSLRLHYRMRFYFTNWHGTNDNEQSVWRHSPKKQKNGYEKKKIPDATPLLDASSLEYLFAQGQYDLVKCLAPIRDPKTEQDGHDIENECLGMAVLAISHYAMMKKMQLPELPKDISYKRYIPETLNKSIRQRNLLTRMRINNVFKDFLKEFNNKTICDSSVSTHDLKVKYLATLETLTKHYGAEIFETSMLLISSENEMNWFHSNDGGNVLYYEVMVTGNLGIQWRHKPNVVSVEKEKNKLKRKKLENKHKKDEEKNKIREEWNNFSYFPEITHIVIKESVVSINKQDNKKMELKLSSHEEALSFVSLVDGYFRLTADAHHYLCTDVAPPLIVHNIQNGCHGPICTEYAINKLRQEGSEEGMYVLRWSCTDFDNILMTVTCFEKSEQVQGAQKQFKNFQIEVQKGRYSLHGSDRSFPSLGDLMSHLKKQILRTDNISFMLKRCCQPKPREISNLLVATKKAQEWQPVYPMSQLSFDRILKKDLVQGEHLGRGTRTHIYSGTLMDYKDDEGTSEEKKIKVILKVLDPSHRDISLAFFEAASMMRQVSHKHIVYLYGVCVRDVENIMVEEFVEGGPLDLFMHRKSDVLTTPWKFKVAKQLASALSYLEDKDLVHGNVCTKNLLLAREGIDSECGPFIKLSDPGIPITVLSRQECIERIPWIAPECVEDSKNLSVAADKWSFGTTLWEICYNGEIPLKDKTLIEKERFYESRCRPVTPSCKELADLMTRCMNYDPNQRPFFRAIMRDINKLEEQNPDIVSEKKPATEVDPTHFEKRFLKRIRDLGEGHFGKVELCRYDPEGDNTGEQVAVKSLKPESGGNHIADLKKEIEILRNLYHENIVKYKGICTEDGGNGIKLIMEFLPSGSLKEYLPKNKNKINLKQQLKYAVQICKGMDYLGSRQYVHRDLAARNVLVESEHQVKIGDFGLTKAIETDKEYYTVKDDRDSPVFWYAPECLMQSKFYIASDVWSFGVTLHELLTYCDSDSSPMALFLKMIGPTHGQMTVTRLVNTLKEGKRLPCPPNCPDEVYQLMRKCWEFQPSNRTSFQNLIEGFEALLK
UniProt P29375: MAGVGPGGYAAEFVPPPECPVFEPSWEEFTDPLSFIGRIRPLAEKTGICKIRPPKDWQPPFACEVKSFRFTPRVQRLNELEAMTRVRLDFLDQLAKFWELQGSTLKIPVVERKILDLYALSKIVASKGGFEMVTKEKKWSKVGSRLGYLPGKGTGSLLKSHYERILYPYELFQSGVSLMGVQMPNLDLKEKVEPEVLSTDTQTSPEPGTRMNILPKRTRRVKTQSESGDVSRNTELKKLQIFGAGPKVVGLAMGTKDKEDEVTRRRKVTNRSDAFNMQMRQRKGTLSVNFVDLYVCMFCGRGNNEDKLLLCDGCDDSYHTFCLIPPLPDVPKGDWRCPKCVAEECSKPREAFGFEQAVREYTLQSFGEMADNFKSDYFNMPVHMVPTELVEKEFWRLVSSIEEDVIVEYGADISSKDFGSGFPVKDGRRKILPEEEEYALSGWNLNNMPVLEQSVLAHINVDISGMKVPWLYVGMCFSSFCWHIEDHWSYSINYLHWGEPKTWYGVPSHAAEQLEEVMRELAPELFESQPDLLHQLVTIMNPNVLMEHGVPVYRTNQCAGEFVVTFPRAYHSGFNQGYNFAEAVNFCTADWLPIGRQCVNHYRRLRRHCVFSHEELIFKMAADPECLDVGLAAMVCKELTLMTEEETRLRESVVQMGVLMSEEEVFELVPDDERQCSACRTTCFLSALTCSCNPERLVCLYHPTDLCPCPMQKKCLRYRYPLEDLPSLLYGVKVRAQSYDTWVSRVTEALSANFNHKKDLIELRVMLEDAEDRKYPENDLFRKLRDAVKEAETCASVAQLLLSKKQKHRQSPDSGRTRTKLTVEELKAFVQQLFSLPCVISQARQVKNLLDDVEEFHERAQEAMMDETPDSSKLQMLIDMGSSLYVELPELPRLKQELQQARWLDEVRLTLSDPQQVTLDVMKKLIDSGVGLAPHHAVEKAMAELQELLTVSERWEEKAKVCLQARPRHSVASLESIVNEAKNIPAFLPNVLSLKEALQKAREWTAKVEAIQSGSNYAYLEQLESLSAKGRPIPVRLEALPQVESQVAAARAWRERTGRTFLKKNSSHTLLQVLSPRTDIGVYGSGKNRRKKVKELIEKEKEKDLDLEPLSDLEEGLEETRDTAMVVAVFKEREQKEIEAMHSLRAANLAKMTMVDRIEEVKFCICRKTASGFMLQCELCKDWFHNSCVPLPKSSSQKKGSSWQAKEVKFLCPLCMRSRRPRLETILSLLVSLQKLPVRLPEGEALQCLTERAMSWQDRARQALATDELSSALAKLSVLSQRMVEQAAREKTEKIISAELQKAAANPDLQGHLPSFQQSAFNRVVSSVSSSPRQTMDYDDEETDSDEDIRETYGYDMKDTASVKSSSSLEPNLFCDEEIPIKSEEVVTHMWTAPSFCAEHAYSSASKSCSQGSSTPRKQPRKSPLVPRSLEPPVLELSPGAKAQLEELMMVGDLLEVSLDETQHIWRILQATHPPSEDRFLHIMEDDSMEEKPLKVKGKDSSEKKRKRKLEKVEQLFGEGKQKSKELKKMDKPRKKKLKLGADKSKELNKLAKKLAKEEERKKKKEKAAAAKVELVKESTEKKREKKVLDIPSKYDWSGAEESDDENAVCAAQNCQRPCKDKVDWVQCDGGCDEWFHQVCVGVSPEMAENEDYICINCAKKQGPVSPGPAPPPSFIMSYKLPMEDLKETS
UniProt O94819: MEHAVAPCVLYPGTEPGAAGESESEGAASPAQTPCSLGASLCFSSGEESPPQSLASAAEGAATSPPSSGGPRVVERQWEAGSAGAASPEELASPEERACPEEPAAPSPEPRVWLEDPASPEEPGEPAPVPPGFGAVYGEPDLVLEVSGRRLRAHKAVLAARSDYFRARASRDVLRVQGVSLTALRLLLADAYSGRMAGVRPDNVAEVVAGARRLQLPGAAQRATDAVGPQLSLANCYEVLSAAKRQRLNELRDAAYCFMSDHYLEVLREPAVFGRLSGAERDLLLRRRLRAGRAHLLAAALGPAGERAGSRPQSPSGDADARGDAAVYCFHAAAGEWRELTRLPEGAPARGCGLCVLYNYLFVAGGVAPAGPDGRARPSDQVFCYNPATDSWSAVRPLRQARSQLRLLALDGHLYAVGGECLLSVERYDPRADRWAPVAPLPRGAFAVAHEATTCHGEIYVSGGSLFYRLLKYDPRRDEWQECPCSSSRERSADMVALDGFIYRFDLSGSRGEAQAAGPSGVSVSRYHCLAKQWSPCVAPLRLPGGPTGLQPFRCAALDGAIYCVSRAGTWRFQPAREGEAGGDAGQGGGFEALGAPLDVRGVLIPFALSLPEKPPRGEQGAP
UniProt Q14145, whole entry, looked up: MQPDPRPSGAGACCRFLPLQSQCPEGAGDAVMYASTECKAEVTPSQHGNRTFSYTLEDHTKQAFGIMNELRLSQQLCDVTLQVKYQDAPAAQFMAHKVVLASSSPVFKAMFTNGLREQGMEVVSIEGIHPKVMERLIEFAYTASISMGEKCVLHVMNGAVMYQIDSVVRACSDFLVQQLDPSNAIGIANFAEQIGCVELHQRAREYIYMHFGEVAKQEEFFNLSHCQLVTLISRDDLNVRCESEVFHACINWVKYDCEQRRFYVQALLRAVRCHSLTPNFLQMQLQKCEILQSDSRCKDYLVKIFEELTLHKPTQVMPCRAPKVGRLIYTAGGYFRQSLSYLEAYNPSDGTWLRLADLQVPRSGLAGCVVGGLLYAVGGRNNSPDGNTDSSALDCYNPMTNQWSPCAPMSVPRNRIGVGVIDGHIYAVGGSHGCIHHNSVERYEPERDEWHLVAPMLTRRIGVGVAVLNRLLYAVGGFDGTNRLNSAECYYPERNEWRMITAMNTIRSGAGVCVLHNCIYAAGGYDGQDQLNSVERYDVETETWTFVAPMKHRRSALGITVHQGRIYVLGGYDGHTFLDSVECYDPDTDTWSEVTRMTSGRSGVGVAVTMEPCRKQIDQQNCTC

Compound: Cc1cc(ccc1-c1ccccc1)C(=O)N1CCCN(CC1)C(=O)CCl [compound 10]
Experiment: probe-labelled cysteine peptide fold change vs DMSO (competition) (log2 fold change); higher = less target engagement (more negative = stronger competition)
Conditions: THP-1, incubation time: 4 h
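Also: competitive profiling in live THP-1 cells: cysteine peptides tagged with an iodoacetamide desthiobiotin (IA-DTB) probe, intensity after compound treatment relative to DMSO-treated cells.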

| Target | probe-labelled cysteine peptide fold change (10 µM) | probe-labelled cysteine peptide fold change (50 µM) |
| --- | --- | --- |
| KIDINS220_Q9ULH0_412_AGETPYNIDCSHQK (UniProt Q9ULH0) | -0.0994 | -0.102 |
| KAT5_Q92993_11_AEVGEIIEGCR (UniProt Q92993) | -0.0999 | 0.275 |
| KIF14_Q15058_850_YKPNSSHDIQLSGVLIADDHCTIK (UniProt Q15058) | 0.287 | 0.27 |
| ITSN2_Q9NZM3_1429_ENSDRLEWIQAHVQCEGLAEQLIFNSLTNCLGPR (UniProt Q9NZM3) | -0.354 | 0.285 |
| IVNS1ABP_Q9Y6Y0_52_AVLACCSPYLFEIFNSDSDPHGISHVK (UniProt Q9Y6Y0) | 0.318 | 0.0698 |
| KDM5C_P41229_376_CVMAECK (UniProt P41229) | -0.182 | -0.398 |
| KDM3A_Q9Y4C1_467_AGVNSDSPNNCSGK (UniProt Q9Y4C1) | -0.0265 | 0.0124 |
| KANSL2_Q9H9L4_46_LEGQEFCIK (UniProt Q9H9L4) | 0.221 | 0.219 |
| KDM4C_Q9H3R0_14_MEVAEVESPLNPSCK (UniProt Q9H3R0) | 0.236 | 0.0354 |
| ITPRID2_P28290_878_TLSTHSVPNISGATCSAFASPFGCPYSHR (UniProt P28290) | -0.282 | -0.488 |
| KIAA0391_O15091_367_TIESIQLSPEEYECLK (UniProt O15091) | 0.00631 | -0.562 |
| JMJD4_Q9H9V9_188_DWHLCR (UniProt Q9H9V9) | 0.0632 | 0.0929 |
| ITPR1_Q14643_1439_IAYINFLNHCYVDTEVEMK (UniProt Q14643) | 0.193 | 0.305 |
| KIAA1109_Q2LD37_3091_CVAEVGSFEHNLTTDLLNHLVFVQK (UniProt Q2LD37) | 0.244 | 0.178 |
| KANK2_Q63ZY3_797_EIAGLLLAVPSCDISLTDR (UniProt Q63ZY3) | -0.226 | -0.377 |
| KIF15_Q9NS87_949_CEQQMAK (UniProt Q9NS87) | 0.233 | 0.0255 |
| ITPR1_Q14643_2224_TMEQIVFPVPSICEFLTK (UniProt Q14643) | 0.243 | 0.0547 |
| KIF15_Q9NS87_1335_QVECLAEENGK (UniProt Q9NS87) | -0.0868 | -0.0677 |
| ITSN2_Q9NZM3_1414+1429_ENSDRLEWIQAHVQCEGLAEQLIFNSLTNCLGPR (UniProt Q9NZM3) | -0.177 | 0.265 |
| KBTBD2_Q8IY47_145_LLSFADLFSCEELK (UniProt Q8IY47) | -0.201 | -0.143 |
| KDM1A_O60341_665_VVLCFDR (UniProt O60341) | 0.109 | 0.607 |

Taken from above:
KIF15_Q9NS87_1335_QVECLAEENGK (UniProt Q9NS87) – probe-labelled cysteine peptide fold change (10 µM): -0.0868
ITSN2_Q9NZM3_1414+1429_ENSDRLEWIQAHVQCEGLAEQLIFNSLTNCLGPR (UniProt Q9NZM3) – probe-labelled cysteine peptide fold change (50 µM): 0.265

Following part.

| Target | probe-labelled cysteine peptide fold change (10 µM) | probe-labelled cysteine peptide fold change (50 µM) |
| --- | --- | --- |
| JAK1_P23458_731_EGIDSECGPFIK (UniProt P23458) | -0.199 | -0.268 |
| KIF15_Q9NS87_1062_DMLCEDLAHATEQLNMLTEASK (UniProt Q9NS87) | 0.064 | 0.149 |
| ITSN2_Q9NZM3_1414_ENSDRLEWIQAHVQCEGLAEQLIFNSLTNCLGPR (UniProt Q9NZM3) | 0.173 | 0.325 |
| KCTD3_Q9Y597_704_GATGECNISER (UniProt Q9Y597) | -0.23 | -0.298 |
| KDM5A_P29375_1409_SCSQGSSTPR (UniProt P29375) | 0.0454 | -0.464 |
| IVD_P26440_136_ASGAVGLSYGAHSNLCINQLVR (UniProt P26440) | -0.0146 | -0.051 |
| KDM2B_Q8NHM5_651_QCIAPVLPHTAVCLVCGEAGKEDTVEEEEGK (UniProt Q8NHM5) | -0.144 | -0.255 |
| KDM4A_O75164_798_ANDDRWVHVSCAVAILEAR (UniProt O75164) | 0.175 | -0.15 |
| ITPR1_Q14643_2542_EHTCETLLMCIVTVLSHGLR (UniProt Q14643) | 0.0764 | 0.00799 |
| KBTBD11_O94819_329_GDAAVYCFHAAAGEWR (UniProt O94819) | 0.258 | 0.188 |
| KEAP1_Q14145_368_SGLAGCVVGGLLYAVGGR (UniProt Q14145) | 0.148 | 0.035 |
| KDM1A_O60341_600_YTASGCEVIAVNTR (UniProt O60341) | 0.0882 | 0.335 |
| KDM3B_Q7LBC6_1045_EMCDVCETTLFNIHWVCR (UniProt Q7LBC6) | 0.276 | 0.238 |
| IVD_P26440_350+355_ACDEGHCTAK (UniProt P26440) | 0.415 | -0.227 |
| KDM3B_Q7LBC6_937_FKEQEQDDSTVACR (UniProt Q7LBC6) | -0.224 | -0.34 |
| KDM3A_Q9Y4C1_1009_EFGEQEVDLVNCR (UniProt Q9Y4C1) | 0.0163 | -0.0908 |
| KDELC2_Q7Z4H8_495+497_DGMELVPQPEDSTAICQCHR (UniProt Q7Z4H8) | -0.554 | -0.631 |
| KIF20B_Q96Q89-3_672_VETEEATACLELK (UniProt Q96Q89) | -0.171 | -0.134 |
| KAT6B_Q8WYB5_837_GCHLVGYFSK (UniProt Q8WYB5) | -0.127 | 0.151 |
| KIAA0930_Q6ICG6_119_LDYMVTCAVCTR (UniProt Q6ICG6) | 0.134 | 0.138 |
| KAT6A_Q92794_508_CPSVIEFGK (UniProt Q92794) | -0.105 | 0.167 |

| Target | probe-labelled cysteine peptide fold change (10 µM) | probe-labelled cysteine peptide fold change (50 µM) |
| --- | --- | --- |
| ITSN2_Q9NZM3_530_QCDLEIMEIK (UniProt Q9NZM3) | 0.0528 | 0.101 |
| ITPR1_Q14643_638_FLDYLSDLCVSMNK (UniProt Q14643) | 0.0654 | -0.0946 |
| KDM5C_P41229_707_EAFELLPDDERQCIK (UniProt P41229) | -0.00949 | -0.0329 |
| KDELC2_Q7Z4H8_497_DGMELVPQPEDSTAICQCHR (UniProt Q7Z4H8) | -0.0963 | -0.306 |
| KAT6A_Q92794_773_LQLNLRPVDVDPECLR (UniProt Q92794) | 0.0407 | 0.0173 |
| KANSL3_Q9P2N6_161_LANEGACNEPVLR (UniProt Q9P2N6) | -0.241 | -0.44 |
| KIAA0930_Q6ICG6_269_VSTGDTSPCGTEEDSSPASPMHER (UniProt Q6ICG6) | -0.534 | -0.842 |
| KDELC1_Q6UW63_153_EMNCPETIAQIQR (UniProt Q6UW63) | 0.0284 | -0.0329 |
| KARS_Q15046_496_EICNAYTELNDPMR (UniProt Q15046) | 0.000401 | -0.0822 |
| ITPRIP_Q8IWB1_268_LGEDMLCLLHGR (UniProt Q8IWB1) | -0.0254 | -0.153 |
| KIAA2013_Q8IYS2_185_DCVLLQEDFLAHR (UniProt Q8IYS2) | 0.0174 | 0.278 |
| KDM3A_Q9Y4C1_497_VDNESCCSR (UniProt Q9Y4C1) | 0.275 | 0.0699 |
| ITPR1_Q14643_1805_GEMSLAEVQCHLDK (UniProt Q14643) | 0.104 | 0.288 |
| KDM3B_Q7LBC6_1034_EMCDVCETTLFNIHWVCR (UniProt Q7LBC6) | 0.0856 | -0.139 |
| ITPR2_Q14571_1385_DRGDESGPLAYHITLVELLAACTEGK (UniProt Q14571) | 0.482 | 0.386 |
| KHSRP_Q92945_379_CEHAAR (UniProt Q92945) | 0.0644 | -0.0173 |
| KIF21A_Q7Z4S6_1588_DWVCALGVVPDHPVLLSGCR (UniProt Q7Z4S6) | -0.0354 | 0.15 |
| KARS_Q15046_427_ILDDICVAK (UniProt Q15046) | -0.149 | -0.135 |
| ITPR2_Q14571_379_ADCLVPR (UniProt Q14571) | -0.135 | -0.509 |
| KIF21B_O75037_203_LIHSQEELIQCLK (UniProt O75037) | 0.168 | 0.0784 |
| JMJD6_Q6NYC1_101_CGEDNDGYSVK (UniProt Q6NYC1) | -0.128 | 0.139 |

In another format: results already given
Target,probe-labelled cysteine peptide fold change (10 µM),probe-labelled cysteine peptide fold change (50 µM)
KIDINS220_Q9ULH0_412_AGETPYNIDCSHQK (UniProt Q9ULH0),-0.0994,-0.102
KAT5_Q92993_11_AEVGEIIEGCR (UniProt Q92993),-0.0999,0.275
KDM5C_P41229_376_CVMAECK (UniProt P41229),-0.182,-0.398
KDM4C_Q9H3R0_14_MEVAEVESPLNPSCK (UniProt Q9H3R0),0.236,0.0354
JMJD4_Q9H9V9_188_DWHLCR (UniProt Q9H9V9),0.0632,0.0929
KIF15_Q9NS87_949_CEQQMAK (UniProt Q9NS87),0.233,0.0255
ITPR1_Q14643_2224_TMEQIVFPVPSICEFLTK (UniProt Q14643),0.243,0.0547
KDM5A_P29375_1409_SCSQGSSTPR (UniProt P29375),0.0454,-0.464
KDM4A_O75164_798_ANDDRWVHVSCAVAILEAR (UniProt O75164),0.175,-0.15
KBTBD11_O94819_329_GDAAVYCFHAAAGEWR (UniProt O94819),0.258,0.188
KAT6A_Q92794_508_CPSVIEFGK (UniProt Q92794),-0.105,0.167
ITSN2_Q9NZM3_530_QCDLEIMEIK (UniProt Q9NZM3),0.0528,0.101
ITPRIP_Q8IWB1_268_LGEDMLCLLHGR (UniProt Q8IWB1),-0.0254,-0.153
KIAA2013_Q8IYS2_185_DCVLLQEDFLAHR (UniProt Q8IYS2),0.0174,0.278
ITPR1_Q14643_1805_GEMSLAEVQCHLDK (UniProt Q14643),0.104,0.288
KHSRP_Q92945_379_CEHAAR (UniProt Q92945),0.0644,-0.0173
KIF21B_O75037_203_LIHSQEELIQCLK (UniProt O75037),0.168,0.0784

(cont.)

| Target | probe-labelled cysteine peptide fold change (10 µM) | probe-labelled cysteine peptide fold change (50 µM) |
| --- | --- | --- |
| KEAP1_Q14145_288_CEILQSDSR (UniProt Q14145) | -0.267 | -0.999 |
| KBTBD11_O94819_421_LLALDGHLYAVGGECLLSVER (UniProt O94819) | 0.0221 | 0.0279 |
| KBTBD11_O94819_483+485_RDEWQECPCSSSR (UniProt O94819) | -0.0586 | -0.627 |
| JAK1_P23458_257_TICDSSVSTHDLK (UniProt P23458) | 0.0161 | -0.0306 |
| KDSR_Q06136_47_CIAIECYK (UniProt Q06136) | -0.0888 | -0.119 |
| JARID2_Q92833_206_TATNNASSSCQSTPR (UniProt Q92833) | -0.271 | -0.701 |
| KIAA0753_Q2KHM9_745_QLDDFLEDCASELWAVTHAK (UniProt Q2KHM9) | -0.172 | -0.0839 |
| KCTD9_Q7L273_220_CQGLNFSGADLSR (UniProt Q7L273) | 0.184 | 0.174 |
| KDM4A_O75164_430_EDLSSEQYEMTECPAALAPVRPTHSSVR (UniProt O75164) | -0.634 | -0.711 |
| KDELC2_Q7Z4H8_141_GPVYHEYCECPEDPQAWQK (UniProt Q7Z4H8) | -0.0978 | -0.115 |
| KIAA0100_Q14667_1595_GAETEGCVIVSAAK (UniProt Q14667) | -0.291 | -0.303 |
| KDELC1_Q6UW63_257_SNSNIHPIFSWCGSTDSK (UniProt Q6UW63) | 0.142 | 0.253 |
| KAT5_Q92993_234_NIECIELGR (UniProt Q92993) | -0.0819 | -0.0446 |
| KDM3B_Q7LBC6_1392_LLCLHDPSNK (UniProt Q7LBC6) | 0.278 | 0.0431 |
| IVNS1ABP_Q9Y6Y0_482_NCDVFDPVTK (UniProt Q9Y6Y0) | 0.273 | 0.12 |
| KDM4A_O75164_560_VTVGEPCTR (UniProt O75164) | -0.0449 | -0.228 |
| KIAA0586_Q9BVV6_293_YSVKPEHPNLGSCNPSLYNTFASK (UniProt Q9BVV6) | 0.0249 | 0.122 |
| KCTD18_Q6PI47_234_VPHELIECWTLEERPLLGSLR (UniProt Q6PI47) | 0.0969 | 0.0679 |
| KDM2B_Q8NHM5_665_QCIAPVLPHTAVCLVCGEAGKEDTVEEEEGK (UniProt Q8NHM5) | -0.147 | -0.266 |
| KCTD18_Q6PI47_56_TDESGACVIDR (UniProt Q6PI47) | 0.0105 | 0.314 |
